Source: paper PMC6620310, “A ubiquitin-like domain is required for stabilizing the N-terminal ATPase module of human SMCHD1” (Communications Biology, 2019)
No constants are given. Whether binding was seen depends on the method and setting. Values belong to the binder of their own block, whether it stands above or below them.

Tests used:
[1] = molecular target: SMCHD1(24–406) (human) (UniProt A6NHR9); assay: SEC; analytical gel filtration, 10/300 Superdex200 increase; 100 µl protein at 5 mg/ml in 25 mM Tris pH 7.5, 100 mM NaCl, incubated with 5 mM Mg2+/ATP for 25 min on ice; 1 mM MgCl2 and 1 mM ATP in the running buffer; monomer to dimer; both purified
[2] = molecular target: SMCHD1(24–406) (human) (UniProt A6NHR9); assay: cross-linking; glutaraldehyde (final 0.0125%), protein at 2 mg/mL in 20 mM HEPES pH 7.5, 100 mM NaCl, 10% glycerol with 5 mM MgCl2 and 5 mM ATP, 40 min at room temperature, diluted 6.25-fold; SDS-PAGE; both purified
[3] = molecular target: SMCHD1(110–580) (human) (UniProt A6NHR9); assay: SEC; analytical gel filtration, 10/300 Superdex200 increase; 100 µl protein at 5 mg/ml in 25 mM Tris pH 7.5, 100 mM NaCl, incubated with 5 mM Mg2+/ATP for 25 min on ice; 1 mM MgCl2 and 1 mM ATP in the running buffer; monomer to dimer; both purified
[4] = molecular target: SMCHD1(110–580) (human) (UniProt A6NHR9); assay: cross-linking; glutaraldehyde (final 0.0125%), protein at 2 mg/mL in 20 mM HEPES pH 7.5, 100 mM NaCl, 10% glycerol with 5 mM MgCl2 and 5 mM ATP, 40 min at room temperature, diluted 6.25-fold; SDS-PAGE; both purified
[5] = molecular target: SMCHD1(24–580) wild-type (human) (UniProt A6NHR9); assay: SEC; analytical gel filtration, 10/300 Superdex200 increase; 100 µl protein at 5 mg/ml in 25 mM Tris pH 7.5, 100 mM NaCl, without Mg2+/ATP; both purified

binding [1]: no binding (tested: 5 mg/ml loaded)
B1: SMCHD1(24–406) (domain or fragment, UniProt A6NHR9 24-406)
chain: GHRTVYLFDRREKESELGDRPLQVGERSDYAGFRACVCQTLGISPEEKFVITTTSRKEITCDNFDETVKDGVTLYLLQSVNQLLLTATKERIDFLPHYDTLVKSGMYEYYASEGQNPLPFALAELIDNSLSATSRNIGVRRIQIKLLFDETQGKPAVAVIDNGRGMTSKQLNNWAVYRLSKFTRQGDFESDHSGYVRPVPVPRSLNSDISYFGVGGKQAVFFVGQSARMISKPADSQDVHELVLSKEDFEKKEKNKEAIYSGYIRNRKPSDSVHITNDDERFLHHLIIEEKEKDSFTAVVITGVQPEHIQYLKNYFHLWTRQLAHIYHYYIHGPKGNEIRTSKEVEPFNNIDIEISMFEKGKVPKIVNLREIQDDMQTLYVNT
binding [2]: no binding (tested: 2 mg/mL, diluted 6.25-fold)

binding [3]: no binding (tested: 5 mg/ml loaded)
B2: SMCHD1(110–580) (domain or fragment, UniProt A6NHR9 110-580)
chain: ATKERIDFLPHYDTLVKSGMYEYYASEGQNPLPFALAELIDNSLSATSRNIGVRRIQIKLLFDETQGKPAVAVIDNGRGMTSKQLNNWAVYRLSKFTRQGDFESDHSGYVRPVPVPRSLNSDISYFGVGGKQAVFFVGQSARMISKPADSQDVHELVLSKEDFEKKEKNKEAIYSGYIRNRKPSDSVHITNDDERFLHHLIIEEKEKDSFTAVVITGVQPEHIQYLKNYFHLWTRQLAHIYHYYIHGPKGNEIRTSKEVEPFNNIDIEISMFEKGKVPKIVNLREIQDDMQTLYVNTAADSFEFKAHVEGDGVVEGIIRYHPFLYDRETYPDDPCFPSKLKDEDDEDDCFILEKAARGKRPIFECFWNGRLIPYTSVEDFDWCTPPKKRGLAPIECYNRISGALFTNDKFQVSTNKLTFMDLELKLKDKNTLFTRILNGQEQRMKIDREFALWLKDCHEKYDKQIKFTLFK
binding [4]: no binding (tested: 2 mg/mL, diluted 6.25-fold)

binding [5]: no binding (condition: without Mg2+/ATP)
B3: SMCHD1(24–580) wild-type (domain or fragment, UniProt A6NHR9 24-580)
chain: GHRTVYLFDRREKESELGDRPLQVGERSDYAGFRACVCQTLGISPEEKFVITTTSRKEITCDNFDETVKDGVTLYLLQSVNQLLLTATKERIDFLPHYDTLVKSGMYEYYASEGQNPLPFALAELIDNSLSATSRNIGVRRIQIKLLFDETQGKPAVAVIDNGRGMTSKQLNNWAVYRLSKFTRQGDFESDHSGYVRPVPVPRSLNSDISYFGVGGKQAVFFVGQSARMISKPADSQDVHELVLSKEDFEKKEKNKEAIYSGYIRNRKPSDSVHITNDDERFLHHLIIEEKEKDSFTAVVITGVQPEHIQYLKNYFHLWTRQLAHIYHYYIHGPKGNEIRTSKEVEPFNNIDIEISMFEKGKVPKIVNLREIQDDMQTLYVNTAADSFEFKAHVEGDGVVEGIIRYHPFLYDRETYPDDPCFPSKLKDEDDEDDCFILEKAARGKRPIFECFWNGRLIPYTSVEDFDWCTPPKKRGLAPIECYNRISGALFTNDKFQVSTNKLTFMDLELKLKDKNTLFTRILNGQEQRMKIDREFALWLKDCHEKYDKQIKFTLFK
